Laboratory results taken from paper PMC10040760.
Results are given in words; binding and its absence hold for the method and conditions named. Binding can be weak; no strength is given.

Molecular target: FaGL3 (Fragaria × ananassa)
Test: two-hybrid; Matchmaker Gold system; baits fused to the Gal4 DNA-binding domain (pGBKT7), preys to the Gal4 activation domain (pGADT7); read on QDO/X/A (SD/-Trp/-Leu/-His/-Ade/+X-α-gal/+AbA)

binding: binds
Substance: FaTTG1 (from UniProt A0A9E9M670)
